Out of some 31,000 sequences screened, about 1,400 (4.5%) were called active.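 Rule for the calls: active = median seed-adjusted z-score above 1 or below -1; inactive = the rest.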 This is one part of the list.
Test: Novel Modifiers of Survival Motor Neuron (SMN) Protein: Gene Identification via Genome-wide siRNA Screen;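 note: luminescence tracks full-length SMN protein made from the SMN2 reporter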
Details: HEK293T SMN2-luciferase reporter, siRNA knockdown, 72 h; actives lie on both sides
How it was run: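 HEK293T cells stably expressing an SMN2 splicing/cDNA-luciferase reporter were reverse-transfected with a druggable-genome siRNA library and read by luminescence at 72 hours; hits defined by MAD score above 1.0 or below -1.0.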

| Sequence | median seed-adjusted z-score |
| --- | --- |
| GGUACCAAGUCUACCAUUATT against PAN2 | inactive: -0.139 |
| GAAGGUUCAAGAUUAUCUATT against UGP2 | inactive: 0.0766 |
| GAACAUCGCUACCUAUGAATT against PRKAR2B | inactive: -0.777 |
| GGAUGUGCUGUCGACAAGATT against INHBC | inactive: -0.66 |
| GCACGCUAAUUCUAUGGUUTT against SCYE1 | inactive: 0.437 |
| CCAUCCAGGUGGUAAGGAATT against BANK1 | inactive: 0.962 |
| GCUGAUUUGUGGGAUCUGUTT against TRIM13 | inactive: 0.712 |
| GGAGUGUCUUGUGAAGUCATT against BCKDHB | inactive: 0.366 |
| GGUUUGUCCCUUCGCUAUATT against LRRTM3 | inactive: -0.0808 |
| CCUGGAGUCUAGUCGUUUUTT against NDST2 | inactive: -0.0582 |
| CCAACACGGAGGUUGCAAATT against RIMS2 | inactive: 0.534 |
| UGACAUCUAUGAAGAGUAUTT against DNAI2 | inactive: 0.12 |
| GCGAUGCCUAUAAAACCUATT against TRYX3 | active: 2.3 |
| GCAGAAUGGGAGUACUCAATT against ZNF397 | inactive: -0.107 |
| CAUUCGCCUUCGAAACUGUTT against ABCB9 | inactive: 0.151 |
| CCUCGACAGUGAAUGCAAATT against ABCF3 | inactive: 0.0759 |
| AGAUCAAGCUCCUCAACAATT against KRT4 | inactive: 0.336 |
| GUAGUGAAGUGUAUCCGGATT against ANXA6 | active: -1.01 |
| CAAUAAAAUUUGCGAAGGATT against HOXB9 | inactive: 0.717 |
| CCCUAAGUCCAACUACUAATT against HBB | inactive: -0.151 |
| GCAUGUUGGUUCACUAUGATT against TPST1 | inactive: -0.00547 |
| GCUUAUUAGCCUCCAAUUUTT against ZSCAN5A | inactive: 0.31 |
| GGCUGAUUUCUGUAACAUATT against SMG6 | inactive: -0.265 |

| Sequence | median seed-adjusted z-score |
| --- | --- |
| GCAGCAUUCGUAAGAGUCATT against HNF4G | inactive: 0.01 |
| GGACGAUGCUGAUACGGUATT against NOP2 | active: 1.15 |
| GAAGAGCCGUUUGAUCCUATT against GRIP1 | inactive: 0.337 |
| GAACUGCUCAGGACUAUAATT against TBRG1 | active: -1.47 |
| GGUCCACGUUUAUUGCCUUTT against SLC43A2 | inactive: -0.202 |
| GCUCAUAUGUAGUACCUAUTT against DSC2 | inactive: -0.0641 |
| GGUCAACUCUUAGAUUACATT against ZFP1 | inactive: 0.0391 |
| GCCUAAUUCCUAUUACCCATT against PTPRM | inactive: 0 |
| GAGCAGAUCCAGUACCACATT against CBS | inactive: -0.0696 |
| GGCGACAGAUGUGAAAGAATT against LDLR | inactive: -0.142 |
| CAAAGAUCAUGAUAUUCCATT against JUB | inactive: -0.0898 |
| UGGGUUAUGCUACCAAGUATT against HAS1 | inactive: -0.416 |
| GAGGCGCACUUCAAGCAUATT against CENTA1 | inactive: -0.555 |
| GAGACUUGGUUAUUAAGUATT against KPNA2 | inactive: 0.157 |
| GAUGUUACCUGGAUAUAGATT against DDX1 | inactive: 0.507 |
| CCAUGACAACAGUGGGUUATT against KCNA3 | inactive: 0.213 |
| CUGACCGUCCUGUUUGAUATT against DMRTB1 | inactive: -0.393 |
| CCAUCCUGGUUGCUUCGAATT against GLB1L | inactive: -0.263 |
| GUCCUAAACUUCCUACGAATT against KCTD4 | inactive: 0.649 |
| GCUCAUUCAUAGGAUAUAATT against AKT3 | inactive: -0.0936 |
| GAUUCCUCAUCAUUGGGUATT against ATP9A | inactive: 0.499 |
| GGAACCUGACGAAACAGAATT against PRKCG | inactive: 0 |
| CGAGGAACUAAGACUCAAATT against GPR151 | inactive: -0.263 |

A few values from the entries so far:
GGAACCUGACGAAACAGAATT against PRKCG | median seed-adjusted z-score: inactive: 0
GGUCCACGUUUAUUGCCUUTT against SLC43A2 | median seed-adjusted z-score: inactive: -0.202

The listing continues:

| Sequence | median seed-adjusted z-score |
| --- | --- |
| GCCUUCAGCUGUUACUAUUTT against ZNF823 | inactive: 0.143 |
| CAGUUCCUCGUGUACCAGATT against MAPK12 | inactive: 0.0649 |
| AUGUUUCAAUAGAUCCAGATT against LIMD2 | inactive: 0.418 |
| GCAGGAGCCUUAAUUCCUUTT against KRT78 | inactive: 0.306 |
| CACCGUCUGAGAUAAUAGATT against LST-3TM12 | inactive: -0.109 |
| CUCUGUUUCCGAAAGAAAATT against PLA2G4E | inactive: 0.266 |
| GGGUUCACCUCAGAGAGCATT against DPF3 | inactive: 0.242 |
| CACGAUACCUCGUGCAGGATT against TIMM23 | inactive: 0.899 |
| CGCUUGACACUCACACUUUTT against HOXA9 | inactive: -0.304 |
| GGCUCAUUGUGGUCUCUAATT against STAT2 | inactive: 0 |
| CCAUGUCUCAGUUGGAGGATT against MAN1C1 | inactive: -0.548 |
| GAGAAACCCGUCAACAUCATT against CRLF1 | inactive: -0.45 |
| AGUGGAUUGAUAUUACAGATT against LOX | inactive: -0.175 |
| GCAAAACACCAGAACGAGATT against TESSP2 | inactive: 0.419 |
| CGAUCAAUGUUAGAAGUUATT against ACTR2 | inactive: 0.548 |
| AUGGGAUCACAGUAAAUUATT against HRAS | inactive: -0.85 |
| CCAAGAUGCGAUCCUCCAATT against HOXA4 | inactive: 0.194 |
| GCUCCACACUGAUGAAUCATT against ZNF250 | inactive: -0.00985 |
| AAGGAAGUAUUGCUACUAATT against SYNPR | inactive: 0.257 |
| CAACUUCUCCGUAGCAGAATT against AKT2 | inactive: 0 |
| CCCUUAAUCCUGUCUUCAATT against SYT1 | inactive: 0.435 |
| GAUGCAAUCAGUGAAGAAATT against SAR1A | inactive: 0.0213 |
| CCAUCGCCAAGAUUCGGGATT against CYP26C1 | inactive: -0.276 |

Source: PubChem BioAssay AID1347426 (Functional Genomics Laboratory (NCATS/FGL), 2020)
